Source: PubChem BioAssay AID1671190 (National Center for Advancing Translational Sciences (NCATS), 2021)
Several values for one entry are separate records, joined by “and”; a condition that tells them apart may be missing. Identical values can stand only once. The whole screen tested about 580,000 compounds, of which about 6,100 (1.1%) were called active. Inconclusive means that the source gave no clear call. Such entries were picked first, then a sample of the others. The call rests on the fitted dose curve; in most records, active means well fitted inhibition curve with a large enough effect; inconclusive means small, poorly fitted or top-dose-only effect, or another doubt; inactive means no such curve, though single readings can be large or run the other way. Where the call is inconclusive, the potency comes from a doubtful curve fit.

By UniProt entry, the sequences of proteins in these tests, tags left out.
UniProt P18054, whole entry, looked up: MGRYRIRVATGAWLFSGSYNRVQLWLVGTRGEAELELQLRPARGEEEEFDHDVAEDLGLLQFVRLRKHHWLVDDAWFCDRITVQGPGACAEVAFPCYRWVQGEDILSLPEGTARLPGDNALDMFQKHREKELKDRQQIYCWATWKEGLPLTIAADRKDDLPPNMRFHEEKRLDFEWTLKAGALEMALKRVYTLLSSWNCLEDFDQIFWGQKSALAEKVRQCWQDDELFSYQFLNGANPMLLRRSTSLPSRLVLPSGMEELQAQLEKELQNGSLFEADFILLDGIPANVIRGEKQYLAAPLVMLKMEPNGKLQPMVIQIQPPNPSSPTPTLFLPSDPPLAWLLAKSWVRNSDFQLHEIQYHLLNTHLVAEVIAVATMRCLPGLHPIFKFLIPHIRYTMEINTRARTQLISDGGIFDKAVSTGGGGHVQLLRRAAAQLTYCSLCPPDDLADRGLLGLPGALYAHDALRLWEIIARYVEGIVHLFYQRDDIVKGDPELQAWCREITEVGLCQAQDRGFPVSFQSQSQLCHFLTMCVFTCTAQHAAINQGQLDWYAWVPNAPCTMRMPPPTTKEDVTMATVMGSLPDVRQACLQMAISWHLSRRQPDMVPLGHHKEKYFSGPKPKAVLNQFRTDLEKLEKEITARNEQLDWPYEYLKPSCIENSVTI

Each compound was assayed against Polyunsaturated fatty acid lipoxygenase ALOX12 (Homo sapiens) (UniProt P18054) (assay: Primary qHTS assay for inhibitors of human arachidonate 12S-lipoxygenase (ALOX12): Round 2). Conditions: purified 12hLO, xylenol orange hydroperoxide absorbance; activity change, negative = inhibition: at 108 µM (top of the series) unless noted.
Method in brief: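 Hydroperoxide product was detected by ferrous iron/xylenol orange as the 573 to 405 nm absorbance ratio. Arachidonic acid at 40 uM (final) was turned over for 30 min at room temperature by 150 nM human 12hLO, pH 7.0 Hepes buffer, after 15 min compound preincubation.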
On the % scale 0 is the no-effect control and ±100 the full control effect; potency means the concentration at half of the fitted maximal effect.

| SMILES | Potency | activity change, negative = inhibition |
| --- | --- | --- |
| Cc1cc(OCC(O)CN2CCN(c3ccccn3)CC2)cc(C)c1Cl (stereo not drawn) | inconclusive: 35.5 µM [inhibitor, partial curve, poor fit] |  |
| CCN(CC)CCNC(=O)c1ccc(NC(=O)C2CCN(S(=O)(=O)c3ccc4c(c3)OCCO4)CC2)cc1 | inconclusive: 50.1 µM [inhibitor, partial curve, poor fit] |  |
| CCCCN(CCCC)CC(O)COc1ccccc1Br (stereo not drawn) |  | inactive: -6.83% |
| CC(C)c1ccc(Nc2nnc(SCC(=O)NC(C)(C)C)s2)cc1 | inconclusive: 35.5 µM [inhibitor, partial curve, poor fit] |  |
| COc1ccc(N2CCN(S(=O)(=O)c3ccc4c(c3)NC(=O)C(C)C(=O)N4)CC2)cc1 (stereo not drawn) | inconclusive: 28.2 µM [inhibitor, partial curve, poor fit] |  |
| [O-][n+]1c2ccccc2[n+]([O-])c2cc(O)ccc21 | inconclusive: 44.7 µM [inhibitor, partial curve] and inconclusive: 28.2 µM [inhibitor, partial curve, poor fit] |  |
| Cc1ccccc1CC(=O)Nc1cccc(-c2nnc3n2CCCC3)c1 |  | inactive: 25.7% |
| O=S(=O)(Nc1cc(Cl)ccc1-n1cncn1)c1ccc(F)cc1 | inconclusive: 35.5 µM [inhibitor, partial curve, poor fit] |  |
| CN(C)c1ccc(C(=O)N2CCC(n3cc(-c4nc(-c5ccccc5)no4)nn3)C2)cc1 (stereo not drawn) | inconclusive: 39.8 µM [inhibitor, partial curve, poor fit] |  |
| O=C(c1cccs1)N(Cc1cccc2[nH]ccc12)C1CC1 | inconclusive: 44.7 µM [inhibitor, partial curve, poor fit] |  |
| CON(C)C(=O)[C@H]1C[C@@H]2[C@H](C[C@@H](c3ccccc3)[C@H]1C)N(c1ccc(F)cc1)C(=O)N2CCCOc1ccccc1 | inconclusive: 25.1 µM [inhibitor, partial curve] |  |
| COc1cc(OC)cc(C(=O)NC(=S)Nc2ccc(Cl)c(C(=O)O)c2)c1 | active: 28.2 µM |  |
| C=CCc1c(C)nc(SCC(=C)C)[nH]c1=O | inconclusive: 141 µM [inhibitor, partial curve, poor fit] |  |
| CC1(C)Cc2c(sc3c2c(=O)n(CCO)c(=O)n3CCc2ccccc2)CO1 |  | inactive: -41.7% |
| CCCCN(CC)CC(=O)Nc1cccc2ncccc12 |  | inactive: -6.34% |
| COc1ccc(OC)c(NC(=O)c2c(NCc3cccs3)sc3c2CCCCC3)c1 | inconclusive: 44.7 µM [inhibitor, partial curve, poor fit] |  |
| CC1CCC(NC(=O)CCC2CCCO2)CC1 (stereo not drawn) | inconclusive: 70.8 µM [inhibitor, partial curve, poor fit] |  |
| O=C(c1cnccn1)N1CCCC2(C1)Nc1cccnc1NC2=NCc1ccccc1 (stereo not drawn) |  | inactive: 32.4% |
| NC(=O)Cc1c[nH]c2ncc(-c3cccc(C(F)(F)F)c3)cc12 |  | inactive: 15.2% [at 176 µM] |
| COc1ccccc1C(=O)NC(CCSC)C(=O)NNC(=O)c1ccccc1O (stereo not drawn) | inconclusive: 5.01 µM [inhibitor, full curve, poor fit] |  |
| O=C(c1c(O)cc(O)cc1O)C1c2c(cc(O)c3c2O[C@H](c2ccc(O)cc2)[C@@H](O)C3)OC1c1ccc(O)cc1 (stereo partly drawn) | active: 25.1 µM |  |
| CCc1nc2c(c(-c3ccc(O)cc3)n1)CCN(Cc1ccc(C)cc1)CC2 | inconclusive: 44.7 µM [inhibitor, partial curve] |  |
| Cc1ccc2c(c1)CCCN2CC(=O)Nc1cc(S(=O)(=O)N2CCCC2)ccc1Cl | inconclusive: 50.1 µM [inhibitor, partial curve, poor fit] |  |

| SMILES | Potency | activity change, negative = inhibition |
| --- | --- | --- |
| COc1ccc(C2NC(=O)NC(C)=C2C(C)=O)cc1 (stereo not drawn) | inconclusive: 89.1 µM [inhibitor, single point] |  |
| CC(=O)Nc1ccc(-c2ccnc3c2CC(C(=O)Nc2cccnc2)O3)cc1 (stereo not drawn) | inconclusive: 100 µM [inhibitor, single point] |  |
| Cc1ccc(C2CC(=O)n3nc(-c4ccc(Cl)cc4)nc3S2)cc1 (stereo not drawn) | inconclusive: 35.5 µM [inhibitor, partial curve, poor fit] |  |
| COc1ccc(C(=O)CC(=O)c2ccc(C(C)(C)C)cc2)cc1 | inactive |  |
| C/C(=N/NC(=O)c1ccncc1)c1ccccc1 | inconclusive: 4.47 µM [inhibitor, full curve, poor fit] |  |
| NNc1ccc([N+](=O)[O-])c2[nH][nH]c(=O)c12 | inconclusive: 35.5 µM [inhibitor, partial curve] |  |
| Cc1ccc(C(=O)CCC(=O)Nc2ccccc2C)c(C)c1 | inconclusive: 79.4 µM [inhibitor, partial curve, poor fit] |  |
| COCCCNC(=O)C1(CCO)CC12CCOCC2 (stereo not drawn) |  | inactive: 14.7% |
| CCOc1ccc2ncc(C#N)c(Nc3cc(OC)c(OC)c(OC)c3)c2c1 | inconclusive: 14.1 µM [inhibitor, full curve, poor fit] |  |
| CC(=O)NC(c1ccc(F)c(F)c1)c1nc(-c2ccc(F)c(Cl)c2)cs1 (stereo not drawn) |  | inactive: -23.8% |
| Cc1cnc(C(=O)OC(C(=O)c2c[nH]c3ccccc23)c2ccccc2)cn1 (stereo not drawn) | inconclusive: 12.6 µM [inhibitor, partial curve, poor fit] |  |
| O=C(CSc1nnc2ccc(-c3cccnc3)nn12)NC1CCCCC1 |  | inconclusive: -30.9% [inhibitor] |
| CCn1cc(CN(C)C(=O)c2cc(-c3ccc(OC)cc3)cn2CC)c(C)n1 |  | inactive: -4.33% |
| CCOC(=O)c1scc(-c2ccccc2)c1S(=O)(=O)N1CCN(c2ccc(Cl)cc2)CC1 | inconclusive: 50.1 µM [inhibitor, partial curve, poor fit] |  |
| Cc1ccc2c(c1)[C@H]1OCC[C@H]1[C@@H](c1ccncc1)N2 | inconclusive: 0.282 µM [inhibitor, single point] |  |
| O=C(CSc1ccc(Cl)cc1)Nc1ccc(N2CCN(C(=O)c3ccco3)CC2)cc1 |  | inactive: 0.742% |
| Cc1ccc(S(=O)(=O)NC2OC(=O)C(Cl)=C2Cl)cc1 (stereo not drawn) | inconclusive: 2.82 µM [inhibitor, full curve, poor fit] |  |
| O=C(NC1CCc2ccccc21)c1ccc(CN2C(=O)NC3(CCOCC3)C2=O)cc1 (stereo not drawn) |  | inactive: 25.6% |
| Cc1ccc(NC(=O)c2ccc(NC(=O)N3CCSc4ncccc43)cc2)c(Cl)c1 | inconclusive: 25.1 µM [inhibitor, full curve, poor fit] |  |
| O=C(C1CCCC1)N1CC2(CCCN(Cc3ccc(Cl)cc3)C2)Cc2ccccc21 (stereo not drawn) | inconclusive: 44.7 µM [inhibitor, partial curve] |  |
| O=C(/C=C/c1ccccc1)NC(=S)NNC(=O)c1ccccc1 | active: 6.31 µM |  |
| CC(=O)c1cccc(NC(=O)c2cccc(S(=O)(=O)N(C)C)c2)c1 |  | inactive: -0.715% |
| S=C(NCc1ccc(Cl)cc1)Nc1ccc(Br)cc1 | inconclusive: 50.1 µM [inhibitor, partial curve, poor fit] |  |

| SMILES | Potency | activity change, negative = inhibition |
| --- | --- | --- |
| COc1ccc(CC2(CO)CCN(Cc3cccn3-c3ccccn3)CC2)cc1 |  | inactive: 16.7% |
| O=C(O)Cc1cccc2cccnc12 | inconclusive: 0.398 µM [inhibitor, full curve, poor fit] |  |
| FC(F)(F)c1ccc(Cl)c(N/N=C/c2cccc(Cl)c2Cl)c1 | inconclusive: 50.1 µM [inhibitor, partial curve, poor fit] |  |
| O=C(CNCc1ccc(F)cc1)Nc1ccc(C(=O)N2CCCCC2)cc1 | inconclusive: 2.51 µM [inhibitor, full curve, poor fit] |  |
| S=C(NCc1ccco1)Nc1ccc(Cl)c(Cl)c1 | active: 28.2 µM |  |
| Cc1c(C(=O)O)nnn1-c1cccc(Br)c1 | inconclusive: 50.1 µM [inhibitor, partial curve, poor fit] |  |
| CNCCCOc1ccc(C)cc1Br | inconclusive: 5.01 µM [inhibitor, full curve] |  |
| CC(C)C(=O)N/N=C/c1ccco1 |  | inactive: -2.43% |
| CC1(C(=O)Nc2cccc3cccnc23)CCN1Cc1ccc(-c2ccccc2)o1 (stereo not drawn) | inconclusive: 63.1 µM [inhibitor, partial curve, poor fit] |  |
| Cc1cccc(NC(=O)C2CC(=O)n3c(nc4ccccc43)N2)c1 (stereo not drawn) | inconclusive: 89.1 µM [inhibitor, partial curve, poor fit] |  |
| CC1(C)CNC(=O)c2nc(C3CCCN(Cc4ccccc4)C3)[nH]c2C1 (stereo not drawn) |  | inactive: 33.5% |
| Cc1ccccc1CNC(=O)CSc1cccs1 | inconclusive: 50.1 µM [inhibitor, partial curve, poor fit] |  |
| COc1ccc(-c2cn3c(C)c(C(=O)N4CCN(c5ccc(F)cc5)CC4)sc3n2)cc1 |  | inactive: 10.5% [at 57.4 µM] |
| O=C1CC(c2cccs2)Sc2nc3ccccc3n21 (stereo not drawn) | inconclusive: 11.2 µM [inhibitor, partial curve, poor fit] |  |
| COc1cc(OC)cc(C(=O)NC(=S)NCCc2ccccc2)c1 | inconclusive: 12.6 µM [inhibitor, full curve] |  |
| O=C(Nc1cccc(F)c1)c1cc2n(n1)CC(c1ccc(Br)cc1)OC2 (stereo not drawn) | inconclusive: 8.91 µM [inhibitor, full curve, poor fit] |  |
| O=C(Nc1ccccc1Br)C1CC2CCC1C2 (stereo not drawn) |  | inactive: -26.3% |
| Cc1cc(/C=C2\SC(N)=NC2=O)c(C)n1-c1ccccc1 |  | inactive: 11.3% |
| O=C(Cc1c[nH]c2ccccc12)OC/C=C/c1ccccc1 | inconclusive: 44.7 µM [inhibitor, partial curve, poor fit] |  |
| O=C(CSc1nc2ccccc2o1)Nc1ccc(N2CCOCC2)cc1 | inconclusive: 44.7 µM [inhibitor, partial curve, poor fit] |  |
| Nc1nc(N)nc(-c2ccc(Cl)cc2)n1 |  | inactive: 2.36% |
| CCOC(=O)c1cccc(N2C(=O)c3ccccc3S2(=O)=O)c1 | inconclusive: 50.1 µM [inhibitor, single point] |  |
